Measured values as given in paper PMC12083535.
Construct, isoform or probe ends are uncertain for at least one entry.

Sequences of proteins named here, by UniProt entry; tags and fusion partners are left off.
UniProt P11147, whole entry: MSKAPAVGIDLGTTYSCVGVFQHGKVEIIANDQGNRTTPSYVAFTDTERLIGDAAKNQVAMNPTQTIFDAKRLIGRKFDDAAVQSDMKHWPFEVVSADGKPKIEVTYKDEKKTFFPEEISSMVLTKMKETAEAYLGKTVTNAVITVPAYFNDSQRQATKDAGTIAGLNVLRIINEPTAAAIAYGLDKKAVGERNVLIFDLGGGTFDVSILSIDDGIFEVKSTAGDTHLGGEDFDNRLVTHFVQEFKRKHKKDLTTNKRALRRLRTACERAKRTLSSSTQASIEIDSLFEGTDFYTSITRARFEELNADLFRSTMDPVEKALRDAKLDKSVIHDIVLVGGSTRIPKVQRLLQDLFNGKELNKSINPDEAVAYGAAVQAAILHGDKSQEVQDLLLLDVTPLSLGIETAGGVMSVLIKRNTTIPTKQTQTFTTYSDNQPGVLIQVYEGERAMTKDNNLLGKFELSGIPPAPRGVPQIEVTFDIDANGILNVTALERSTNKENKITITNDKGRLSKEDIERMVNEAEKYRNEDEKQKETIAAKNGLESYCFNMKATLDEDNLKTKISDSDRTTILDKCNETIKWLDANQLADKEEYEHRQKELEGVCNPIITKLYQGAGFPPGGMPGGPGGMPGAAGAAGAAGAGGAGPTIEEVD

Molecular target: rHsc70-4 (Drosophila melanogaster) (UniProt P11147)
Test: EMSA
Settings: 25 mM Tris (pH not stated), 50 mM NaCl, 0.1 mg/ml BSA, 31.25 mM DTT, 0.625 mg/ml E. coli tRNA, 30 min 25 C; 4% native PAGE 0.5x TBE on ice; nucleotide assays in PBS; recombinant protein; protein details: 6xHis; label: Cy3; probe letters rebuilt from the primers and the genome

Does “GGGAGAGCAACUUCUGCUGGUAGCCCAGACCCACCUGGCUGGCGUUGUUCACCUUAGCGCGCACGCUGGCAUCAUCAUCCAGCUGAUACUUGGCGCCGAUGGCGAACUUGGUGUUGCUGGUGCCGCUGGCCCACGACAGCUGUACACCCACAUCCAGCUUGUCCGAAGUGCGUUGGAAGAUCGAGCCGCUGAACUCCUGGCCAUCGUUGCUAAACACCGGACAAGGCAAUCAUUAGUUUGCAUUGAUUUCAUUUGCCAUGCGUGGCAAUUGCAAUACUUACACAGCUGUGUGCAGAACAAAGUCCUUGGUGGUGUAGCCAAGGGCAAAGUUGUUGGUGGUCAGCUUGGACUGUUGUGUGUCAAAUGCGGUCUGGUAGCCGGCCAACCAUCCCUGGUAGCCAAGCACGGCAGAGGCAUUGAUCAAGGGGCCCUUCAGAUCAAUGUUCACAUCCGAAUCGGCCUUGACGUUCUCAUGGCCGUAGGCAACCUUGAACUUGCCGUUCUUGUUUCUGACGAUUUUUAAUUAAAUAUGCAAUAUUAAUUAUUCUGCAGUGAACAUAUAUGUAAUAACAUGUGAUCCUUACCCAGACUGAGGAGCAAAGUUGCCCUCCAGGGACAGCUUCAGACCCUCGAGGAGCUGAUCCUGGACAGCAACCUCGGUUCUCCCUAUAGUGAGUCGUAUUA / GGGAGAACCGAGGUUGCUGUCCAGGAUCAGCUCCUCGAGGGUCUGAAGCUGUCCCUGGAGGGCAACUUUGCUCCUCAGUCUGGGUAAGGAUCACAUGUUAUUACAUAUAUGUUCACUGCAGAAUAAUUAAUAUUGCAUAUUUAAUUAAAAAUCGUCAGAAACAAGAACGGCAAGUUCAAGGUUGCCUACGGCCAUGAGAACGUCAAGGCCGAUUCGGAUGUGAACAUUGAUCUGAAGGGCCCCUUGAUCAAUGCCUCUGCCGUGCUUGGCUACCAGGGAUGGUUGGCCGGCUACCAGACCGCAUUUGACACACAACAGUCCAAGCUGACCACCAACAACUUUGCCCUUGGCUACACCACCAAGGACUUUGUUCUGCACACAGCUGUGUAAGUAUUGCAAUUGCCACGCAUGGCAAAUGAAAUCAAUGCAAACUAAUGAUUGCCUUGUCCGGUGUUUAGCAACGAUGGCCAGGAGUUCAGCGGCUCGAUCUUCCAACGCACUUCGGACAAGCUGGAUGUGGGUGUACAGCUGUCGUGGGCCAGCGGCACCAGCAACACCAAGUUCGCCAUCGGCGCCAAGUAUCAGCUGGAUGAUGAUGCCAGCGUGCGCGCUAAGGUGAACAACGCCAGCCAGGUGGGUCUGGGCUACCAGCAGAAGUUGCUCUCCCUAUAGUGAGUCGUAUUA [dsRNA-2 (dsCG6647)]” bind?
Result: binds
